# According to PubChem BioAssay AID2551 (National Center for Advancing Translational Sciences (NCATS), 2010):
# Sequences of proteins named here, by UniProt entry; tags and fusion partners are left off. A change or cut given only in a name is not applied to a line headed by its entry.
# UniProt P51450: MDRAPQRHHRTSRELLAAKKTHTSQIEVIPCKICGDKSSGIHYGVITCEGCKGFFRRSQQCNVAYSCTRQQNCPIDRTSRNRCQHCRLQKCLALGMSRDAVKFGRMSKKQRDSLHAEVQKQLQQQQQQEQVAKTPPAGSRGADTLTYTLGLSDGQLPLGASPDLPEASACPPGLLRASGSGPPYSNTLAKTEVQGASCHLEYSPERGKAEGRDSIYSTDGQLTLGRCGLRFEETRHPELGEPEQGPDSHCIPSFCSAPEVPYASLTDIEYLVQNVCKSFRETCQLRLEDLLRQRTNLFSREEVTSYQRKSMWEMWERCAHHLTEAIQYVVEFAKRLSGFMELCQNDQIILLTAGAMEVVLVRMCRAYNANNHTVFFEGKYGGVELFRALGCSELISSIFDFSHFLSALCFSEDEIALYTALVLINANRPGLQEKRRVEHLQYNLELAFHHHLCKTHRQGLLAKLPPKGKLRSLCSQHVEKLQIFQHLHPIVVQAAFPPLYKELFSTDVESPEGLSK
# About 17,000 (5.5%) of roughly 310,000 compounds were called active. This list was built around the results that the source calls inconclusive (neither active nor inactive); the mix of calls is not that of the screen. The call rests on the fitted dose curve; in most records, active means well fitted inhibition curve with a large enough effect; inconclusive means small, poorly fitted or top-dose-only effect, or effect the other way; inactive means no such curve, though single readings can be large or run the other way. Where the call is inconclusive, the potency comes from a doubtful curve fit.
# Target: Nuclear receptor ROR-gamma (Mus musculus) (UniProt P51450)
# Experiment: qHTS for inhibitors of ROR gamma transcriptional activity; further: nearly all actives have a fitted effect of over 60% in size
# Settings: Drosophila S2 Gal4-RORgamma UAS-luciferase reporter, 20 h; activity change, negative = inhibition: at 53.6 µM (top of the series)
# Procedure, shortened: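 Using a luciferase readout, inhibitors were identified by reduced reporter activity in Drosophila cells coexpressing a copper-inducible Gal4–ROR gamma fusion and UAS-driven Photinus luciferase, incubated 20 hr after 700 uM copper sulfate.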
# On the % scale 0 is the no-effect control and ±100 the full control effect; potency means the concentration at half of the fitted maximal effect.
Compound,"activity change, negative = inhibition",Potency
CN1CCN2c3ccc(N)cc3CC3(C(=O)NC(=O)NC3=O)C2C1 (centres undefined),inactive: 1.19%,–
c1ccc(CN2CC[C@@]3(CCCNC3)C2)cc1,inactive: -4.86%,–
C[C@H]1O[C@@H](O[C@H]2[C@@H](O)C[C@H](O[C@H]3[C@@H](O)C[C@H](O[C@H]4CC[C@]5(C)C6CC[C@]7(C)[C@@H](C8=CC(=O)OC8)CC[C@]7(O)C6CC[C@@H]5C4)O[C@@H]3C)O[C@@H]2C)C[C@H](O)[C@@H]1O (some centres undefined),–,active: 2.51 µM
COCCCNC(=O)Cn1cc(/C=C2\C(=O)NC(=O)N(c3ccccc3F)C2=O)c2ccccc21,–,"inconclusive: 35.5 µM [inhibitor, single point]"
COc1ccc(-c2cc(C(=O)N3CCC4(CC3)OCCO4)c3ccccc3n2)cc1,–,"inconclusive: 11.2 µM [inhibitor, partial curve]"
CCN(CC)c1ccc(N=Cc2c(O)n(-c3ccc(OC)cc3)c(=O)[nH]c2=O)cc1,inactive: -6.74%,–
CCCCOc1nc2ccccc2c(=O)n1-c1ccccc1,–,"inconclusive: 35.5 µM [activator, single point]"
C[C@H]1O[C@@H](O[C@H]2[C@@H](O)C[C@H](O[C@H]3[C@@H](O)C[C@H](O[C@H]4CC[C@@]5(C)[C@H](CC[C@@H]6[C@@H]5CC[C@]5(C)[C@@H](C7=CC(=O)OC7)CC[C@]65O)C4)O[C@@H]3C)O[C@@H]2C)C[C@H](O)[C@@H]1O,–,active: 1.58 µM
Cc1cc(NC(=O)COC(=O)c2c(C)nn(Cc3ccccc3Cl)c2Cl)no1,inactive: 21.1%,–
CCCCN1CCC(O)(c2ccccc2)C(C(=O)c2ccccc2)C1 (centres undefined),–,"inconclusive: 35.5 µM [inhibitor, single point]"
CC(c1ccccc1)(c1ccccc1)c1ccncc1,–,"inconclusive: 11.2 µM [inhibitor, single point]"
Cc1nnc2n1-c1ccc(Cl)cc1C(c1ccccc1)=NC2,–,active: 2.51 µM
CNC(=O)OCCc1n(C)cc[n+]1C,inactive: -1.8%,–
CCCCCn1c(=O)c(C(=O)NCc2ccncc2)c(O)c2ccccc21,–,active: 3.55 µM
O=C(Nc1cccc(OC(=O)N2CCCCC2)c1)N1CCCCC1,–,"inconclusive: 0.0045 µM [activator, full curve, poor fit]"
C=C(C)C(=O)CP(=O)(OCC)OCC,–,"inconclusive: 2.51 µM [activator, single point]"
Cn1ccc(NC(=O)CCl)n1,–,active: 5.01 µM
CN1CC[C@]2(C)c3cc(O)ccc3N(C)[C@@H]12,–,"inconclusive: 14.1 µM [inhibitor, partial curve, poor fit]"
COc1ccc(OCC(=O)N2CCCC(N3CCN(c4ccccc4C)CC3)C2)cc1 (centres undefined),–,"inconclusive: 35.5 µM [activator, single point]"

# 5 of these compounds, reformatted.
Compound	activity change, negative = inhibition	Potency
c1ccc(CN2CC[C@@]3(CCCNC3)C2)cc1	inactive: -4.86%	–
C[C@H]1O[C@@H](O[C@H]2[C@@H](O)C[C@H](O[C@H]3[C@@H](O)C[C@H](O[C@H]4CC[C@]5(C)C6CC[C@]7(C)[C@@H](C8=CC(=O)OC8)CC[C@]7(O)C6CC[C@@H]5C4)O[C@@H]3C)O[C@@H]2C)C[C@H](O)[C@@H]1O (some centres undefined)	–	active: 2.51 µM
COCCCNC(=O)Cn1cc(/C=C2\C(=O)NC(=O)N(c3ccccc3F)C2=O)c2ccccc21	–	inconclusive: 35.5 µM [inhibitor, single point]
COc1ccc(-c2cc(C(=O)N3CCC4(CC3)OCCO4)c3ccccc3n2)cc1	–	inconclusive: 11.2 µM [inhibitor, partial curve]
CCN(CC)c1ccc(N=Cc2c(O)n(-c3ccc(OC)cc3)c(=O)[nH]c2=O)cc1	inactive: -6.74%	–
